For the test, the target named is RsTIGIT-Fc (Macaca mulatta). The experiment in a line: ELISA, antigen coated on the plate, 30 ng antibody per well (one amount), absorbance 450 nm. (In an ELISA, binding on a coated surface is turned into a signal by an enzyme label.)

No constants are given. Whether binding was seen depends on the method and setting. Some results given as binding are weak or reduced against the parent protein; the word gives no strength.

B1: S64 (IgG1 form) (antibody, V domains shown)
VH: EVQLLESGGGLVQPGGSLRLSCAASGFTFSNYAMSWVRQAPGKGLEWVSAIYPGGGSIYYADSVKGRFTISRDNSKNTLYLQMNSLRAEDTAVYYCAKAIRTCSLSHCYYYYGMDVWGQGTLVTVSS
VL: QSVLTQPPSASGTPGQRVTISCSCSSSNIGNNAVSWYQQLPGTAPKLLIYYDSNRPSGVPDRFSGSKSGTSASLAISGLRSEDEADYYCGSWDYSLSAYVFGGGTKLTVLG
Regarding B1, the binding entry was “binds”.

Source of the values: patent US20210087268A1.
